Data on 1 substance can be found in doi:10.1101/2020.08.22.262386.

Chains of the proteins cited; added tags and fusions are not shown.
UniProt Q14145: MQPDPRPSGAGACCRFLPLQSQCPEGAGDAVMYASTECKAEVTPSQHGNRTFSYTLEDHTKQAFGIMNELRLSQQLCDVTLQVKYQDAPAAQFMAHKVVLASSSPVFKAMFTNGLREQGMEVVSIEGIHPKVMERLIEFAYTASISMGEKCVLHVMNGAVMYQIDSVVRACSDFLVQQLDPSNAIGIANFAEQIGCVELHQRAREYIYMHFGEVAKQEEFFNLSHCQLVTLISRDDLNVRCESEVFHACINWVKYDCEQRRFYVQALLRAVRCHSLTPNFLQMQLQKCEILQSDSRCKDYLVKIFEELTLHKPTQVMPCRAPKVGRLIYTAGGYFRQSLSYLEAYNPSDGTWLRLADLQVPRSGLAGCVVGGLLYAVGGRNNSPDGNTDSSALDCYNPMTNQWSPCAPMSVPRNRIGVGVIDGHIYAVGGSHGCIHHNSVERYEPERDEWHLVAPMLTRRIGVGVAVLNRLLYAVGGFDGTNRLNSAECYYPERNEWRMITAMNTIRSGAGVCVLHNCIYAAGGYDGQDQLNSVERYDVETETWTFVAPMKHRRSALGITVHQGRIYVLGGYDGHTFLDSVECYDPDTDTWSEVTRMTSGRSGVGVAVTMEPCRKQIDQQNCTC

In this assay the target is T1, DPP3 (human) (UniProt Q9NY33).
T1 sequence: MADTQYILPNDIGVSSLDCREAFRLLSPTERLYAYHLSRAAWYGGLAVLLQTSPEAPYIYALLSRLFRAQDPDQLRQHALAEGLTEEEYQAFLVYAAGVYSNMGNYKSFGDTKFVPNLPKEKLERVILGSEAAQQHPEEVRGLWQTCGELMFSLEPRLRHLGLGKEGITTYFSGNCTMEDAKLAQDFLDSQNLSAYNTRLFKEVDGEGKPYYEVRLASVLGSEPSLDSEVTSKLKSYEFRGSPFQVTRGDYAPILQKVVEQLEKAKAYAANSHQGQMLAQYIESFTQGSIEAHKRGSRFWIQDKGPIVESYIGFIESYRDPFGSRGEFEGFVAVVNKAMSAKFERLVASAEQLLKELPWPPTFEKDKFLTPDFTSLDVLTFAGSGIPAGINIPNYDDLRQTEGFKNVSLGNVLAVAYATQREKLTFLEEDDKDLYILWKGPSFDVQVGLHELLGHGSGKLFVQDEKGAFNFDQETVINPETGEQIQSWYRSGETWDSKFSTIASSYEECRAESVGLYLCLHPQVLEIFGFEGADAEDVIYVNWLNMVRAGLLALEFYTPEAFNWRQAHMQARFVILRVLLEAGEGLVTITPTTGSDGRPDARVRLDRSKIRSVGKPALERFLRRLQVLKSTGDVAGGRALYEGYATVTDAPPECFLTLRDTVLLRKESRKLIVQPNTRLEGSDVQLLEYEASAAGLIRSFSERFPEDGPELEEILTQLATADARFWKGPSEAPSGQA
The assay can be described thus: two-hybrid.

No constants are given. Whether binding was seen depends on the method and setting. Some results given as binding are weak or reduced against the parent protein; the word gives no strength.

On to KEAP1 (from UniProt Q14145 1-624), for which the binding entry is “binds”.
